# Some of the results follow. Most values lie at the level of the controls, where differences are scatter.
# By UniProt entry, the sequences of proteins in these tests, tags left out. Where a name states a change or a piece, a line headed by the entry shows the natural chain unless it says otherwise.
# UniProt Q96NB1: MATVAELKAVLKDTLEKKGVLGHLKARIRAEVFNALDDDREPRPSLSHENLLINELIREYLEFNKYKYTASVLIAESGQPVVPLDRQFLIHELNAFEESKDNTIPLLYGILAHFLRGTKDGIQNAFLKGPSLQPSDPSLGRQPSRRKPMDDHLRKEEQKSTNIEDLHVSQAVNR
# UniProt Q96LB3: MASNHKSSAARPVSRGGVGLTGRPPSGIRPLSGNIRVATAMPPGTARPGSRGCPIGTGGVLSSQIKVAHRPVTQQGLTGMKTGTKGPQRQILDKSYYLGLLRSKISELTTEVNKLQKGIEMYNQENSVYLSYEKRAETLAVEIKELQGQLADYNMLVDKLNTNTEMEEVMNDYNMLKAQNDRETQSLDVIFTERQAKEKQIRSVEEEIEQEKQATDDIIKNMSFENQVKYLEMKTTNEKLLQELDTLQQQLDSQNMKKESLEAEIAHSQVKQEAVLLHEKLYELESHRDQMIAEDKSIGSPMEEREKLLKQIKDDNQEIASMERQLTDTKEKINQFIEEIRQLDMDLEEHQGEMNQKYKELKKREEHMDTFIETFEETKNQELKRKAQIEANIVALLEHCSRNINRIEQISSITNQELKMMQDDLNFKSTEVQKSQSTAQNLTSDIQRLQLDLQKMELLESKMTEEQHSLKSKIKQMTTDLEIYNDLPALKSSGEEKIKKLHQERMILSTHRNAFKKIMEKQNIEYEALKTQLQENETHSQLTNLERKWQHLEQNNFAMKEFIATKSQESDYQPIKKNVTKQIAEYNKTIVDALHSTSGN
# UniProt Q96FV9: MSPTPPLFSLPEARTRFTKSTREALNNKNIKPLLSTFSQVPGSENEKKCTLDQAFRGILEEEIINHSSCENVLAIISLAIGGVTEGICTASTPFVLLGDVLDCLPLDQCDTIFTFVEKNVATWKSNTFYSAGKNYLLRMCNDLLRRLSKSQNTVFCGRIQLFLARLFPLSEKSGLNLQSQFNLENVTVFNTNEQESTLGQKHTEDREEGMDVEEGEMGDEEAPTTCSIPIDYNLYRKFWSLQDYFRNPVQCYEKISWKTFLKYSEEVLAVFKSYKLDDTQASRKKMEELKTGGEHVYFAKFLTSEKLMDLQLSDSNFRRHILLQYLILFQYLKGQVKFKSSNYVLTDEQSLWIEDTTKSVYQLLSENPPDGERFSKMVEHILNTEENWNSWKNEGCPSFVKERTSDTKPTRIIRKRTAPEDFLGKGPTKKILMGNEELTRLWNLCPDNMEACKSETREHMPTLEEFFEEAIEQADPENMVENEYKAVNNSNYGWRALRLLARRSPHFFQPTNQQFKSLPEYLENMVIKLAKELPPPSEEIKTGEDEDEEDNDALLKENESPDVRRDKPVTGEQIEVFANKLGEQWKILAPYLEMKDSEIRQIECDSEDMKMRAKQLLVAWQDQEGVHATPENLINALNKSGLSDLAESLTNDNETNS
# UniProt Q96LW4: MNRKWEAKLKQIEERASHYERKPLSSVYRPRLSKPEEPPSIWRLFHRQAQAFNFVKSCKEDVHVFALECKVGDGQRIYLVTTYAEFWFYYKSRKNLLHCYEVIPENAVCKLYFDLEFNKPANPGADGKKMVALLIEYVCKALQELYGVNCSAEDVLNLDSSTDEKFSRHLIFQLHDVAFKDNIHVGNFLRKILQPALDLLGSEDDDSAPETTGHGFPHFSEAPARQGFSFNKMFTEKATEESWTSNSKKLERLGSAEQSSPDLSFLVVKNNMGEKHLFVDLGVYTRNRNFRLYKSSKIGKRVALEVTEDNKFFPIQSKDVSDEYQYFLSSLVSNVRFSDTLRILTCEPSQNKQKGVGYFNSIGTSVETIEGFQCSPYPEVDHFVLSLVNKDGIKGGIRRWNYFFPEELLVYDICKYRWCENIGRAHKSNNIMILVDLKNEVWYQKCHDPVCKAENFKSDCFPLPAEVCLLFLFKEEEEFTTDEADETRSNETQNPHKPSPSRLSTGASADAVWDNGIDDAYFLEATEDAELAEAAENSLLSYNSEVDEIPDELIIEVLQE
# UniProt Q96H55, whole entry: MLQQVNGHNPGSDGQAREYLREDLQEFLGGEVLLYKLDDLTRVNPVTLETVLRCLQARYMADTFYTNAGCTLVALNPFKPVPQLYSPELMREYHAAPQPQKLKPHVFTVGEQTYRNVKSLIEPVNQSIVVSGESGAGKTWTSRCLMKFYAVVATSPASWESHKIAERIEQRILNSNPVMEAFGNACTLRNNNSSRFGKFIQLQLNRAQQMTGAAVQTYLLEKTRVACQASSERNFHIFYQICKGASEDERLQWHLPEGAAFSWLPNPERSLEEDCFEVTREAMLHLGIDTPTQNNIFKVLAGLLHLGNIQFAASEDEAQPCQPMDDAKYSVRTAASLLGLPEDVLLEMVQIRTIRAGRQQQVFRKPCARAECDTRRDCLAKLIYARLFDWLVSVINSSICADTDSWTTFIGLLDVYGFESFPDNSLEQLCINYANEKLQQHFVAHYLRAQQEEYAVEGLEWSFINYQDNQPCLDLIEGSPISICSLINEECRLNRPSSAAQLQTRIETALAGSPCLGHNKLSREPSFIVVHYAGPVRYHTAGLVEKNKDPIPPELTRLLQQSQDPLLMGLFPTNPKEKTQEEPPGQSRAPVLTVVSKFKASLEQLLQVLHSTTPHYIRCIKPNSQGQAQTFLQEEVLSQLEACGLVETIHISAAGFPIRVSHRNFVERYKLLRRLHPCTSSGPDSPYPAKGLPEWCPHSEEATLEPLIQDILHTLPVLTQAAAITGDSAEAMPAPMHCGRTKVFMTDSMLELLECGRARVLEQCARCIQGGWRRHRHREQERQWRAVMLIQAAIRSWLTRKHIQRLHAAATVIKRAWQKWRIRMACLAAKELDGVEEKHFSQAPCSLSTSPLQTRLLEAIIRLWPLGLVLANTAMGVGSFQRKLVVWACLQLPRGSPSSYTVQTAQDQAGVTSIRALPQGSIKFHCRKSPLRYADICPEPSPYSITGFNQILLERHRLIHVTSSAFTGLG
# UniProt Q96HV5: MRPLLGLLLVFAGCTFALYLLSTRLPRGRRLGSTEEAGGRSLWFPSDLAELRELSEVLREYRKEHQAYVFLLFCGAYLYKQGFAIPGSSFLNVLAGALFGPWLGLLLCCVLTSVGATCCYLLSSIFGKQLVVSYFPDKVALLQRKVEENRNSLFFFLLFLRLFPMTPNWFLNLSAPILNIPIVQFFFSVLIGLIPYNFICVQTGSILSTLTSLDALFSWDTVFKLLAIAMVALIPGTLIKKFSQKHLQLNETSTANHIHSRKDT
# UniProt Q96QR8: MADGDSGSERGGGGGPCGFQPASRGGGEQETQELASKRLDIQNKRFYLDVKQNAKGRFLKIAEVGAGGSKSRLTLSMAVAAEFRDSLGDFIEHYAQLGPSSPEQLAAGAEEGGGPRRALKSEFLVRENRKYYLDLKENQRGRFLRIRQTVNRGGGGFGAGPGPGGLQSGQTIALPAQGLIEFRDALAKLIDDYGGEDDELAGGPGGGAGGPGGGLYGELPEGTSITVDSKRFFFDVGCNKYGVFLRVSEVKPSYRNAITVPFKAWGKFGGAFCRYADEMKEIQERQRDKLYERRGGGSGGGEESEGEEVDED
# UniProt Q96MT8: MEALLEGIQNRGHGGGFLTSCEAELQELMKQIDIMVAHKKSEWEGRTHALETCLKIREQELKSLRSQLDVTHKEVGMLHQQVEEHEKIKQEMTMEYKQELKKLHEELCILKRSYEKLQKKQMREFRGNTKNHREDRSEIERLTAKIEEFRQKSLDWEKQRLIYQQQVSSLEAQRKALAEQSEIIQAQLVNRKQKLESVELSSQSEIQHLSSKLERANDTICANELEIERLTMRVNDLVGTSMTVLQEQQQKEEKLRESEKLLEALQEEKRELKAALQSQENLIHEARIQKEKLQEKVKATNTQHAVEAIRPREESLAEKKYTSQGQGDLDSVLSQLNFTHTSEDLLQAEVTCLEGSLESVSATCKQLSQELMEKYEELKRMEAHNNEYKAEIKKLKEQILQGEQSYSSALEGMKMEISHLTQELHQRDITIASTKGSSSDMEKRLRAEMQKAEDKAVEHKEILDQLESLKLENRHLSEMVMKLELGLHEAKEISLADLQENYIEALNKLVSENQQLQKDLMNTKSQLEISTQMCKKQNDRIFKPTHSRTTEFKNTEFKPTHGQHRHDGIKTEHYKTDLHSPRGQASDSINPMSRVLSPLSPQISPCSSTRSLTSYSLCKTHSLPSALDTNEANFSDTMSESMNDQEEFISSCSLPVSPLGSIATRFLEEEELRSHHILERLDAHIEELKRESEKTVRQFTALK
# UniProt Q96PM5: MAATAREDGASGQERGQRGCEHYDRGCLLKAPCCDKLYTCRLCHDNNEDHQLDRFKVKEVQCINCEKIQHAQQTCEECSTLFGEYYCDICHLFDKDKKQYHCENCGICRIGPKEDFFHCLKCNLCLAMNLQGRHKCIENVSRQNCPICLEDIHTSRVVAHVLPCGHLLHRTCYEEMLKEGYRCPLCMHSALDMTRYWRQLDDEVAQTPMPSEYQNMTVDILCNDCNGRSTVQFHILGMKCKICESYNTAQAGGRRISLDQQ
# UniProt Q96PX1: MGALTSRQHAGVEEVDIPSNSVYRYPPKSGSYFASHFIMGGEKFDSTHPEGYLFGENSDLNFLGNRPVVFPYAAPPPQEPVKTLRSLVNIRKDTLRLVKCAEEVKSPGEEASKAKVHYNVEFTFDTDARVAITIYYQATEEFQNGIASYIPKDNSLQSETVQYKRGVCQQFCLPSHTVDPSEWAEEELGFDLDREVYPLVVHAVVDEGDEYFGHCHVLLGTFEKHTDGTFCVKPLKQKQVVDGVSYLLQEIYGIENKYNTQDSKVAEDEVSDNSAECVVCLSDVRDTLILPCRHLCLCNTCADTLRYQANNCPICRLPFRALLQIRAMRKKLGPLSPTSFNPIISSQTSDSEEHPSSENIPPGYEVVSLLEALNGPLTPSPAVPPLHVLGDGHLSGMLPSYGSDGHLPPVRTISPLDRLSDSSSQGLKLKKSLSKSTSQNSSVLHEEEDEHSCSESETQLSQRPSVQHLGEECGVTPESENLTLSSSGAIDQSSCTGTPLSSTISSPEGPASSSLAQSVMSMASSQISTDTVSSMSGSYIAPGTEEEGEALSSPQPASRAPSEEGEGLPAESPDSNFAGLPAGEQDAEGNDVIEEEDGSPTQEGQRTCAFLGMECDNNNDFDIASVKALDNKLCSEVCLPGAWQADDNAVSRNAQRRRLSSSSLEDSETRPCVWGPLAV
# UniProt Q96HW7, whole entry: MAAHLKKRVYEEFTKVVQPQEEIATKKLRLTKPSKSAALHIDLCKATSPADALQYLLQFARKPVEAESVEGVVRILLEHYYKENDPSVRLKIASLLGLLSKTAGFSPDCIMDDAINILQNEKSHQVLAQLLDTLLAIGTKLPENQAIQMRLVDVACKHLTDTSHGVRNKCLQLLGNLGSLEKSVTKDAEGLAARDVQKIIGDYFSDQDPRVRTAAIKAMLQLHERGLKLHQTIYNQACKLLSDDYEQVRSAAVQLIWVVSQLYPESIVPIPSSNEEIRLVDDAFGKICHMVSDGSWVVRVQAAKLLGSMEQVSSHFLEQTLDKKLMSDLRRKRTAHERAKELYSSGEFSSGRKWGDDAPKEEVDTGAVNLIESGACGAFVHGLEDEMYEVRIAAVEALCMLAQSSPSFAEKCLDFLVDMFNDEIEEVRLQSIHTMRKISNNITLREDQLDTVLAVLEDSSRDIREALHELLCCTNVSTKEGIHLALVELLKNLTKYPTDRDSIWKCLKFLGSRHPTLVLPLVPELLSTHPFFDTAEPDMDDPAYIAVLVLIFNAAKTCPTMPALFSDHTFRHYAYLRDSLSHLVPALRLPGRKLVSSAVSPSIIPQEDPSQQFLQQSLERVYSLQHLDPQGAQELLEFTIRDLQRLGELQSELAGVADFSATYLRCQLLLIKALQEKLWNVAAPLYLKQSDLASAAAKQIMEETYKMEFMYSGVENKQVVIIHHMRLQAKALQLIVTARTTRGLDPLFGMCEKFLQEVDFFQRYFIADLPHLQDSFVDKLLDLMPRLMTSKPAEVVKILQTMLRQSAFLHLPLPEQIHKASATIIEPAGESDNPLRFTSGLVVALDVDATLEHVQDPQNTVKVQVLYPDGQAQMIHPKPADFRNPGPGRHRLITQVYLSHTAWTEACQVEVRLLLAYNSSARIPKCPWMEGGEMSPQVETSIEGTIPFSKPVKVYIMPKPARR
# Compound: Cc1nc(Nc2ncc(C(=O)Nc3c(C)cccc3Cl)s2)cc(N2CCN(CCO)CC2)n1 [dasatinib]
# Test: log2 fold change of tryptic peptide abundance, ligand vs vehicle (limited proteolysis) (log2 ratio); higher = more trypsin-susceptible (destabilized)
# Conditions: ligand concentration: 5 uM; sample: K562 cleared lysate
row,Target,log2 fold change
1,"UniProt Q96NB1 (peptide sequence: RKPMDDHLR, peptide start residue: 146)",-0.499
2,"IFT74 (peptide sequence: QNIEYEALK, peptide start residue: 522) (UniProt Q96LB3)",-0.597
3,"THOC1 (peptide sequence: NEGCPSFVKER, peptide start residue: 393) (UniProt Q96FV9)",0.603
4,"PRIMPOL (peptide sequence: DNIHVGNFLR, peptide start residue: 181) (UniProt Q96LW4)",-0.291
5,"MYO19 (peptide sequence: YHTAGLVEK, peptide start residue: 538) (UniProt Q96H55)",-0.932
6,"TMEM41A (peptide sequence: HLQLNETSTANHIHSR, peptide start residue: 246) (UniProt Q96HV5)",0.166
7,"PURB (peptide sequence: KYYLDLK, peptide start residue: 130) (UniProt Q96QR8)",-0.126
8,"CEP63 (peptide sequence: FLEEEELR, peptide start residue: 666) (UniProt Q96MT8)",0.467
9,"RCHY1 (peptide sequence: QYHCENCGICR, peptide start residue: 99) (UniProt Q96PM5)",-0.663
10,"UniProt Q96PX1 (peptide sequence: YQANNCPICR, peptide start residue: 308)",-0.911
11,"INTS4 (peptide sequence: HLTDTSHGVR, peptide start residue: 158) (UniProt Q96HW7)",-0.376

# Reprinted: nos. 8–9
row,Target,log2 fold change
8,"CEP63 (peptide sequence: FLEEEELR, peptide start residue: 666) (UniProt Q96MT8)",0.467
9,"RCHY1 (peptide sequence: QYHCENCGICR, peptide start residue: 99) (UniProt Q96PM5)",-0.663
